Inconclusive means that the source gave no clear call. Such entries were picked first, then a sample of the others. For part of these data: Potencies of inconclusive entries are doubtful fits and often do not repeat. The source made the active and inactive calls. Unless noted, the limit is not given here; nearly all actives have AC50 up to about 26 µM.
Assays:
[1] = growth inhibition of DIPG glioma cells, dose response, cell-based, SU-DIPG-XVII, MIPE5.0, CellTiter-Glo, qHTS (AID 1347060); conditions: SU-DIPG-XVII viability, CellTiter-Glo ATP luminescence;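 as to AC50: cells exposed to compound for 48 hours before viability readout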
[2] = growth inhibition of DIPG glioma cells, dose response, cell-based, SU-DIPG-XIII, MIPE4.0, CellTiter-Glo, qHTS (AID 1347061; cut-off not given, nearly all actives have AC50 up to about 37 µM;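 also: cells exposed to compound for 48 hours before readout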); conditions: SU-DIPG-XIII viability, CellTiter-Glo ATP luminescence
[3] = growth inhibition of DIPG glioma cells, dose response, cell-based, SU-DIPG-XIII, MIPE5.0, CellTiter-Glo, qHTS (AID 1347064; cut-off not given, nearly all actives have AC50 up to about 23 µM;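 as to AC50: cells exposed to compound for 48 hours before the viability read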); conditions: SU-DIPG-XIII viability, CellTiter-Glo ATP luminescence
[4] = viability loss in pontine glioma line – cell-based, SU-DIPG-XXV, MIPE5.0, CellTiter-Glo, qHTS, dose response (AID 1347065); conditions: CellTiter-Glo ATP luminescence;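 also: cells exposed to compound for 48 hours before ATP readout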
[5] = SU-DIPG-VI glioma cell viability, MIPE4.0 library, CellTiter-Glo luminescence, qHTS (AID 1347066; cut-off not given, nearly all actives have AC50 up to about 30 µM;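 also: cells exposed to compound for 48 hours before readout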); conditions: CellTiter-Glo ATP luminescence
[6] = JHH-DIPG-1 glioma cell viability, MIPE5.0 library, CellTiter-Glo luminescence, qHTS (AID 1347067); conditions: JHH-DIPG-1 glioma viability, CellTiter-Glo ATP luminescence;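 also: cells exposed to compound for 48 hours before readout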
[7] = SU-DIPG-XXV glioma cell viability, MIPE5.0 library, qHTS (AID 1347068; cut-off not given, nearly all actives have IC50 up to about 30 µM;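 as to IC50: cells exposed to compound for 48 hours before viability readout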)
[8] = inhibitors of polyQ aggregate elongation, biochemical, solid-phase synthetic aggregates, QA3 (AID 1585; call rule not given here); conditions: biotin-polyQ incorporation, at 100 µM, stronger effect = higher value
[9] = polyglutamine aggregation reduction, turbidity readout, qthio, single concentration 25 µM screen (AID 1588; call rule not given here); conditions: at 25 µM, stronger effect = lower value
[10] = enhancers of SMN2 over SMN1 splicing, cell-based, SMN2/SMN1 luciferase reporters (AID 1598; call rule not given here); conditions: SMN2 vs SMN1 luciferase splicing reporter cells; at 10 µM; stronger effect = higher value
[11] = mitochondrial permeability transition inhibitors (AID 1580; call rule not given here); conditions: isolated mitochondria, permeability transition inhibition; active call at 10 uM (0/1): at 10 µM, stronger effect = higher value

COc1cc(C(=O)N2CCC(N3CCN(C)CC3)CC2)ccc1Nc1ncc2c(n1)N(C)c1ccccc1C(=O)N2C
AC50 [1]: inconclusive: 33.2 µM [cytotoxic]
AC50 [2]: inconclusive: 16.6 µM [cytotoxic]
AC50 [3]: inconclusive: 3.72 µM [cytotoxic]
AC50 [4]: inconclusive: 14.8 µM [cytotoxic]
AC50 [5]: inconclusive: 20.9 µM [cytotoxic]
AC50 [6]: active: 18.6 µM

O=C(O)c1ccc(O)c2ncc(N3CCOCC3)cc12
outcome [1]: inactive
AC50 [2]: active: 26.4 µM
AC50 [3]: inconclusive: 37.2 µM [cytotoxic]
AC50 [4]: inconclusive: 1.48 µM [cytotoxic]
AC50 [5]: active: 26.4 µM
outcome [7]: inactive

CC(=O)O[C@]1(C(C)=O)CC[C@H]2[C@@H]3C=C(C)C4=CC(=O)CC[C@]4(C)[C@H]3CC[C@@]21C
AC50 [1]: inconclusive: 37.2 µM [cytotoxic]
AC50 [2]: inconclusive: 8.33 µM [cytotoxic]
outcome [3]: inactive
AC50 [4]: inconclusive: 16.6 µM [cytotoxic]
outcome [5]: inactive
AC50 [6]: inconclusive: 2.63 µM [cytotoxic]

CC(=O)Oc1ccccc1C(=O)Nc1ncc([N+](=O)[O-])s1
AC50 [1]: inconclusive: 29.5 µM [cytotoxic]
AC50 [2]: active: 27 µM
AC50 [3]: inconclusive: 20.9 µM [cytotoxic]
AC50 [4]: inconclusive: 26.3 µM [cytotoxic]
AC50 [5]: active: 9.59 µM
AC50 [6]: inconclusive: 18.6 µM [cytotoxic]
outcome [7]: inactive

CS(=O)(=O)c1ccc(-c2cnc(N)c(C(=O)Nc3ccccc3)n2)cc1
outcome [1]: inactive
outcome [2]: inactive
outcome [3]: inactive
AC50 [4]: inconclusive: 14.8 µM [cytotoxic]
outcome [6]: inactive

CCCCCOC(=O)Nc1nc(=O)n([C@@H]2O[C@H](C)[C@@H](O)[C@H]2O)cc1F
outcome [1]: inactive
outcome [2]: inactive
outcome [3]: inactive
AC50 [4]: inconclusive: 0.295 µM [cytotoxic]
outcome [6]: inactive

CC(=O)Oc1ccccc1C(=O)O
inhibition [8]: inconclusive: 24.5%
aggregation (% of control) [9]: inconclusive: 93.6%
SMN2/SMN1 luciferase ratio [10]: inconclusive: 1
outcome [1]: inactive
AC50 [2]: inconclusive: 33.2 µM [cytotoxic]
AC50 [3]: inconclusive: 0.00118 µM
outcome [4]: inactive

CCCCC(CC)COC(=O)C(C#N)=C(c1ccccc1)c1ccccc1 (stereo not drawn)
AC50 [1]: inconclusive: 0.00118 µM
AC50 [2]: inconclusive: 3.72 µM [cytotoxic]
AC50 [3]: inconclusive: 33.2 µM [cytotoxic]
AC50 [4]: inconclusive: 23.5 µM [cytotoxic]
AC50 [6]: inconclusive: 0.00118 µM

Cc1ccc(-c2cc(C(F)(F)F)nn2-c2ccc(S(N)(=O)=O)cc2)cc1
inhibition [8]: inconclusive: -0.4%
aggregation (% of control) [9]: inconclusive: 95.4%
SMN2/SMN1 luciferase ratio [10]: inconclusive: 0.89
AC50 [1]: inconclusive: 20.9 µM [cytotoxic]
AC50 [2]: inconclusive: 13.2 µM [cytotoxic]
AC50 [3]: active: 18.6 µM
AC50 [4]: inconclusive: 74.2 µM [cytotoxic]
AC50 [5]: inconclusive: 33.2 µM [cytotoxic]

Cc1cnc(NC(=O)C2=C(O)c3ccccc3S(=O)(=O)N2C)s1
AC50 [1]: inconclusive: 0.00118 µM
AC50 [2]: inconclusive: 26.4 µM [cytotoxic]
outcome [3]: inactive
outcome [4]: inactive
outcome [5]: inactive
outcome [6]: inactive
IC50 [7]: inconclusive: 11.8 µM

COc1cc2c(cc1-c1c(C)noc1C)ncc1[nH]c(=O)n([C@H](C)c3ccccn3)c12
outcome [1]: inactive
AC50 [2]: active: 10.5 µM
AC50 [3]: inconclusive: 2.95 µM [cytotoxic]
AC50 [4]: inconclusive: 0.833 µM [cytotoxic]

N#Cc1c(C2CCNCC2)cc(-c2c(O)cccc2OCC2CC2)nc1N
AC50 [1]: inconclusive: 33.2 µM [cytotoxic]
AC50 [2]: inconclusive: 20.9 µM [cytotoxic]
AC50 [3]: inconclusive: 37.2 µM [cytotoxic]
AC50 [4]: inconclusive: 37.2 µM [cytotoxic]
AC50 [5]: inconclusive: 13.2 µM [cytotoxic]
AC50 [6]: inconclusive: 2.63 µM [cytotoxic]
IC50 [7]: active: 20.9 µM

Nc1ccccc1NC(=O)c1ccc(CNC(=O)OCc2cccnc2)cc1
AC50 [1]: inconclusive: 4.68 µM [cytotoxic]
AC50 [2]: active: 14.8 µM
AC50 [3]: active: 3.32 µM
AC50 [5]: active: 3.72 µM

COc1ccnc(CS(=O)c2nc3ccc(OC(F)F)cc3[nH]2)c1OC (stereo not drawn)
outcome [1]: inactive
AC50 [2]: inconclusive: 18.7 µM [cytotoxic]
outcome [3]: inactive
outcome [5]: inactive
outcome [7]: inactive

CCCCCCCCc1ccc(CCC(N)(CO)CO)cc1
AC50 [1]: active: 10.5 µM
AC50 [2]: active: 23.5 µM
AC50 [5]: active: 23.5 µM
AC50 [6]: active: 10.5 µM
IC50 [7]: inconclusive: 37.2 µM [cytotoxic]

C[C@@H](N)C1CCC(C(=O)Nc2ccncc2)CC1 (stereo partly drawn)
AC50 [1]: inconclusive: 33.2 µM [cytotoxic]
outcome [2]: inactive
outcome [3]: inactive
outcome [5]: inactive
outcome [6]: inactive
outcome [7]: inactive

Cc1cc(CN2CCN(c3c(Br)cnc4nc(-c5ccc(N6CCN(C)CC6)cc5)[nH]c34)CC2)no1
AC50 [1]: active: 1.66 µM
AC50 [2]: inconclusive: 16.6 µM [cytotoxic]
AC50 [3]: active: 3.32 µM
AC50 [5]: active: 14.8 µM
IC50 [7]: active: 8.33 µM

C=C1/C(=C\C=C2/CCC[C@]3(C)[C@@H]([C@H](C)/C=C/[C@H](C)C(C)C)CC[C@@H]23)C[C@@H](O)C[C@@H]1O
AC50 [1]: inconclusive: 23.5 µM [cytotoxic]
AC50 [2]: active: 8.33 µM
AC50 [3]: inconclusive: 29.5 µM [cytotoxic]
AC50 [5]: active: 23.5 µM
AC50 [6]: active: 26.3 µM
outcome [7]: inactive

CS(=O)(=O)CCNCc1ccc(-c2ccc3ncnc(Nc4ccc(OCc5cccc(F)c5)c(Cl)c4)c3c2)o1
AC50 [1]: active: 18.6 µM
AC50 [2]: active: 14.8 µM
AC50 [6]: active: 20.9 µM
IC50 [7]: inconclusive: 37.2 µM [cytotoxic]

CC(C)n1nc(-c2cc3cc(O)ccc3[nH]2)c2c(N)ncnc21
AC50 [1]: active: 2.63 µM
AC50 [2]: active: 18.7 µM
AC50 [3]: active: 1.66 µM
AC50 [5]: active: 20.9 µM
AC50 [6]: active: 2.63 µM
IC50 [7]: inconclusive: 14.8 µM [cytotoxic]

O=C1c2cccc(O)c2C(=O)c2c(O)cc(CO)cc21
outcome [1]: inactive
outcome [2]: inactive
outcome [3]: inactive
AC50 [5]: inconclusive: 11.8 µM [cytotoxic]

C1CCC(C(CC2CCCCN2)C2CCCCC2)CC1 (stereo not drawn)
active call at 10 uM (0/1) [11]: inconclusive: 1
inhibition [8]: inconclusive: 24.6%
aggregation (% of control) [9]: inconclusive: 113%
SMN2/SMN1 luciferase ratio [10]: inconclusive: 0.87
AC50 [1]: active: 7.42 µM
AC50 [2]: inconclusive: 29.6 µM [cytotoxic]
AC50 [3]: active: 11.8 µM
AC50 [5]: inconclusive: 29.6 µM [cytotoxic]
IC50 [7]: inconclusive: 16.6 µM [cytotoxic]

COC(c1ccccc1)(c1ccccc1)[C@H](Oc1nc(C)cc(C)n1)C(=O)O
AC50 [1]: inconclusive: 0.0833 µM [cytotoxic]
outcome [2]: inactive
AC50 [3]: inconclusive: 0.00132 µM
outcome [5]: inactive

NC1(Cc2ccc(Cl)cc2)CCN(c2ncnc3[nH]ccc23)CC1
AC50 [1]: inconclusive: 20.9 µM [cytotoxic]
AC50 [2]: inconclusive: 18.7 µM [cytotoxic]
AC50 [3]: active: 14.8 µM
AC50 [5]: inconclusive: 14.8 µM [cytotoxic]
AC50 [6]: inconclusive: 16.6 µM [cytotoxic]
IC50 [7]: inconclusive: 10.5 µM [cytotoxic]

COc1cc(C(=O)NC2CCN(C)CC2)ccc1Nc1ncc2c(n1)N(C1CCCC1)CCC(=O)N2C(C)C
AC50 [1]: inconclusive: 37.2 µM [cytotoxic]
AC50 [2]: inconclusive: 33.2 µM [cytotoxic]
AC50 [3]: inconclusive: 33.2 µM [cytotoxic]
AC50 [5]: inconclusive: 23.5 µM [cytotoxic]
AC50 [6]: active: 23.5 µM

O=C(O)c1nc(=O)[nH]c(=O)[nH]1
AC50 [1]: inconclusive: 11.5 µM [cytotoxic]
AC50 [2]: inconclusive: 0.00323 µM [cytotoxic]
outcome [3]: inactive
outcome [5]: inactive

NC(CO)(CO)CCc1ccc(Sc2cccc(OCc3ccccc3)c2)cc1Cl
AC50 [1]: inconclusive: 9.34 µM [cytotoxic]
AC50 [2]: inconclusive: 37.2 µM [cytotoxic]
AC50 [4]: active: 9.34 µM
IC50 [7]: inconclusive: 0.00105 µM [cytotoxic]

CCOC(=O)[C@@H](N)CCC(=O)N[C@@H](CSCc1ccccc1)C(=O)N[C@@H](C(=O)OCC)c1ccccc1
AC50 [1]: inconclusive: 33.2 µM [cytotoxic]
outcome [2]: inactive
AC50 [3]: active: 18.6 µM
AC50 [5]: inconclusive: 33.2 µM [cytotoxic]
AC50 [6]: active: 23.5 µM
outcome [7]: inactive

C/C(=N\NC(=S)N1CCC1)c1ccccn1
AC50 [1]: active: 0.00934 µM
AC50 [2]: inconclusive: 0.0264 µM [cytotoxic]
AC50 [3]: active: 0.0235 µM
AC50 [5]: active: 9.35 µM
AC50 [6]: inconclusive: 0.0263 µM [cytotoxic]
IC50 [7]: inconclusive: 0.0263 µM [cytotoxic]

CCNC(=O)c1cc2c(-c3cc(OCCN4CCCC4)c(Cl)cc3Cl)nc(N)nc2s1
AC50 [1]: active: 1.02 µM
AC50 [2]: active: 6.62 µM
AC50 [3]: active: 2.29 µM
AC50 [5]: inconclusive: 4.69 µM [cytotoxic]
IC50 [7]: inconclusive: 2.88 µM [cytotoxic]

O=C(/C=C/c1cccc(S(=O)(=O)Nc2ccccc2)c1)NO
AC50 [1]: active: 2.09 µM
AC50 [2]: active: 15.2 µM
AC50 [3]: active: 0.661 µM
AC50 [5]: active: 3.82 µM
IC50 [7]: inconclusive: 2.95 µM [cytotoxic]

CC(C)[C@H](C(=O)Nc1ccc(C(=O)NO)cc1)c1ccccc1
AC50 [1]: active: 1.86 µM
AC50 [2]: active: 3.72 µM
AC50 [3]: inconclusive: 1.18 µM [cytotoxic]
AC50 [5]: active: 0.833 µM
AC50 [6]: inconclusive: 1.18 µM [cytotoxic]
IC50 [7]: inconclusive: 6.61 µM [cytotoxic]

COc1cc(C)c(Sc2cnc(NC(=O)c3ccc(CNC(C)C(C)(C)C)cc3)s2)cc1C(=O)N1CCN(C(C)=O)CC1 (stereo not drawn)
AC50 [1]: active: 10.5 µM
AC50 [2]: active: 16.6 µM
AC50 [5]: active: 18.7 µM
AC50 [6]: inconclusive: 2.95 µM [cytotoxic]
IC50 [7]: inconclusive: 9.34 µM [cytotoxic]

Reference: PubChem BioAssay
